Experimental data from PubChem BioAssay AID1117319 (Southern Research Institute, 2015).
The whole screen tested about 260,000 compounds, of which about 1,500 (0.58%) were called active. Inconclusive means that the source gave no clear call. Such entries were picked first, then a sample of the others.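 How the source made its calls: active means inhibition above a set limit at one or more doses, reproduced on every date tested; inconclusive means results disagree between test dates, or hit never tested in dose response; inactive means the rest.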

By UniProt entry, the sequences of proteins in these tests, tags left out. Where a name states a change or a piece, a line headed by the entry shows the natural chain unless it says otherwise.
UniProt P69720: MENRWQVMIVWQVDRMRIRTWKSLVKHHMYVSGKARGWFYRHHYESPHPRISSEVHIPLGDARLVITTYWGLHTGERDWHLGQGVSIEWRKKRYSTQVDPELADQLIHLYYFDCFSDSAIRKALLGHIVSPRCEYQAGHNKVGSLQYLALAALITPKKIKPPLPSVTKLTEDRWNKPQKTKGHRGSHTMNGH
UniProt P69721: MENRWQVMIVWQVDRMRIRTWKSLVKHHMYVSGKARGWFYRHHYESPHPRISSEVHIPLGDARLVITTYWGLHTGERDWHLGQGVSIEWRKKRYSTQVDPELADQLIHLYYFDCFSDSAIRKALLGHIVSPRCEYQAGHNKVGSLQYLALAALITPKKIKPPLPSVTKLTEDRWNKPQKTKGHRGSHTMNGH
UniProt P69722: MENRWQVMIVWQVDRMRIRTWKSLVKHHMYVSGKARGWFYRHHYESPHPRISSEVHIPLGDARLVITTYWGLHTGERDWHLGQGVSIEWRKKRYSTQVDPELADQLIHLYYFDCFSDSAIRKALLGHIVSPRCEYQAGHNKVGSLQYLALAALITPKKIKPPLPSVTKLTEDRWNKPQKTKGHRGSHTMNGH
UniProt P69723: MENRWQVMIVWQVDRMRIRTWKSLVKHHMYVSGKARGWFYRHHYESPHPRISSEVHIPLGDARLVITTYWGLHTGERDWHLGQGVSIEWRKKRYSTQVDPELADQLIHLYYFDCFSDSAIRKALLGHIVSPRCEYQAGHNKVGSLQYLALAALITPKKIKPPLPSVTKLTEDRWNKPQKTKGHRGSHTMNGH
UniProt Q9HC16: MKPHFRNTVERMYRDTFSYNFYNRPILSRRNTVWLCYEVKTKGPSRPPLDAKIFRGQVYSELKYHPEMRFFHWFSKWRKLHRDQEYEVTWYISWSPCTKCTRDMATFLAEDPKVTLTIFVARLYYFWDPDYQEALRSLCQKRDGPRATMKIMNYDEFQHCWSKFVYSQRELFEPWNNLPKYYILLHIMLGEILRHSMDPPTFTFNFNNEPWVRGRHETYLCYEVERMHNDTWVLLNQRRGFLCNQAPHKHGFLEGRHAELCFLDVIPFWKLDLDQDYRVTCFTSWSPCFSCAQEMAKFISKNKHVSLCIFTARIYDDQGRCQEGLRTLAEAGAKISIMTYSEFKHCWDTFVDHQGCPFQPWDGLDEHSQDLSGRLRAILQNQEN

biological target: Virion infectivity factor (Human immunodeficiency virus type 1 group M subtype B (isolate BH10)) + Virion infectivity factor (Human immunodeficiency virus type 1 group M subtype B (isolate BRU/LAI)) + Virion infectivity factor (Human immunodeficiency virus type 1 group M subtype B (isolate PCV12)) + Virion infectivity factor (Human immunodeficiency virus type 1 group M subtype B (isolate HXB2)) + DNA dC->dU-editing enzyme APOBEC-3G (Homo sapiens) (UniProt P69720+P69721+P69722+P69723+Q9HC16); experiment: inhibitors of Vif binding to APOBEC3G peptide, primary screen, biochemical, TR-FRET, GST-Vif 1-94, biotin-A3G peptide, dose response retest (AID 1117319); conditions: stronger effect = higher value;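 further: Vif residues 1-94 fused to GST binding biotinylated APOBEC3G peptide 110-148; 0% = full assay without inhibitor and 100% = GST in place of GST-Vif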

SMILES | inhibition
O=C1Nc2ccccc2C12OCC1(CO2)COC2(OC1)C(=O)Nc1ccccc12 (stereo unspecified) | inconclusive: 35.6%
COc1cc(/C=C2/C(=O)NN(c3ccc(Cl)cc3)C2=O)ccc1OC(=O)c1ccco1 | inconclusive: 49.1%
CCOC(=O)c1c(CN2CCOCC2)n(C)c2cc(Br)c(O)c(CN(C)C)c12 | inconclusive: 55.8%
O=C(Nc1ccc2nc(-c3ccc(Br)o3)[nH]c2c1)c1cccs1 | inconclusive: 35%
COCC(C)NC(=O)c1cccc(Cl)c1 (stereo unspecified) | inconclusive: 61.3%
O=C(Nc1ccc2c(c1)CN(Cc1ccccc1O)CC2)C1CCCO1 (stereo unspecified) | inactive: -4.54%
O=C(/C=C/c1ccco1)NC(=S)Nc1ccccc1 | inactive: 10.3%
CCc1nc(-c2ccc(-c3ccc(OC)cc3)nc2OC)no1 | inconclusive: 41.2%
COc1ccc(-c2cc(C(=O)N3CCC3)c3ccccc3n2)cc1OC | inactive: -14.9%
OC(COc1ccc2c(c1)OCO2)CN1CCCC1 (stereo unspecified) | inconclusive: 47.4%
Cc1c(Cl)cccc1Nc1nc(N)nc(CSC(=S)N2CCOCC2)n1 | inactive: 0.88%
Cc1ccc(CN2C(=O)CCC2C(=O)NCCCN2CCCCC2C)cc1 (stereo unspecified) | inconclusive: 31.2%
O=C(CCC(=O)c1cccs1)NCC(=O)Nc1ccc(F)c(F)c1F | inconclusive: 37.8%
N=c1c2c3c(sc2ncn1CCCN1CCOCC1)CCCCC3 | inconclusive: 38%
COc1ccc(CCNC(=O)C(NS(=O)(=O)c2ccc3c(c2)CCN3C(C)=O)C(C)C)cc1OC (stereo unspecified) | inconclusive: 45%
Nc1ncnc2c1ncn2[C@@H]1O[C@H](CO)[C@@H](O)[C@H]1O | inconclusive: 37%
Cn1c(=O)c2c(ncn2CC(=O)N/N=C/C=C\c2ccccc2[N+](=O)[O-])n(C)c1=O | inconclusive: 43.5%
COCC(=O)OCn1nnc2ccccc2c1=O | inconclusive: 27.4%
Fc1ccc2nc(Nc3ccccc3)sc2c1 | inactive: -8.41%
Cc1ccc(C)c(OCc2nnc(N)s2)c1 | inconclusive: 43.9%
CC(C)n1nc(C(=O)Nc2ccccc2N2CCOCC2)c2ccccc2c1=O | inconclusive: 51.9%
CCCCCCOC(=O)/C=C/c1c(C)[nH]c(=O)[nH]c1=O | inconclusive: 33.4%
CC(C)N(C(=O)COC(=O)c1ccc([N+](=O)[O-])cc1)c1ccccc1 | inconclusive: 36.2%

SMILES | inhibition
COc1cc(CN2CCN(Cc3ccc([N+](=O)[O-])cc3)CC2)c([N+](=O)[O-])cc1OC | inconclusive: 46.2%
COc1ccc(/C=N/Nc2nc(Nc3ccccc3)nc(N3CCCCC3)n2)cc1OC | inconclusive: 44.6%
O=c1nc(/C=C/c2cccn2-c2ccc([N+](=O)[O-])cc2)cc(C(F)(F)F)[nH]1 | inconclusive: 54.1%
COc1ccc(C2C(C#N)=C(N)Oc3c2oc(CO)cc3=O)cc1 (stereo unspecified) | inactive: -2.28%
CC(C)c1ccccc1NC(=O)CNCCc1ccc(C(F)(F)F)cc1 | inconclusive: 41%
C=CCNC(=S)N/N=C(\C)c1cccc(OC)c1 | inconclusive: 65%
COc1ccc(NC(=O)Cc2c[nH]c3ccccc23)cc1S(=O)(=O)N1CCCCC1 | inconclusive: 35.6%
COc1ccc(CN(C)CC(=O)Nc2ccccc2C(F)(F)F)c(OC)c1 | inconclusive: 34.6%
Cc1cc(N/N=C/c2cccc(F)c2)nc(NCc2ccccc2)n1 | inactive: 4.51%
COc1ccc(CCNC(=O)C2CC(=O)N(c3ccc(C(C)(C)C)cc3)C2)cc1OC (stereo unspecified) | inconclusive: 63.4%
N#CC(=C1Nc2ccccc2N1)S(=O)(=O)c1ccccc1 | inconclusive: 46.1%
Cc1cc(=O)[nH]c(N/N=C/c2ccco2)n1 | inconclusive: 36.6%
O=C(NCCc1c[nH]c2ccccc12)/C(=C\c1cccnc1)NC(=O)c1ccccc1Br | inconclusive: 43.1%
O=C(NCc1ccco1)c1cccc2c1C(=O)N(C1CCCCC1)C2 | inconclusive: 38.5%
O=C(Nc1ccccc1C(F)(F)F)N1CCC(n2c(=O)[nH]c3ccccc32)CC1 | inconclusive: 36.4%
CCCCC(=O)Nc1sc2c(c1C(=O)OCC)CCC(C=O)=C2Cl | inconclusive: 51%
N=c1c2c(ncn1CCCO)Oc1ccc3ccccc3c1C2c1ccccc1 (stereo unspecified) | inconclusive: 33.7%
C=CCOc1c(Br)cc(CNc2ccc(NC(=O)C(C)C)c(OC)c2)cc1OC | inconclusive: 25.7%
O=C(/C=C/c1ccco1)NCc1ccc2c(c1)OCO2 | inconclusive: 60.7%
Cc1noc(C)c1S(=O)(=O)N1CCC(C(=O)NC2CCN(Cc3ccccc3)CC2)CC1 | inactive: 28.3%
Cc1ccc(C(CC(=O)NCCCN(C)C)c2ccc(OC(C)C)cc2)cc1 (stereo unspecified) | inconclusive: 38.5%
Cc1cc(SCC(=O)NC(=O)NCc2ccco2)nc2c(C)cccc12 | inconclusive: 41.1%
Cc1ccc(C(=O)CSc2nc(C)cc(C)c2C(N)=O)cc1 | inconclusive: 44.2%

SMILES | inhibition
C/C(=N\NC(=O)c1ccccn1)c1ccc(C(=O)O)s1 | inconclusive: 53.8%
O=C(Oc1coc(CSc2nnc(NC(=O)c3cccs3)s2)cc1=O)c1ccccc1 | inconclusive: 38.5%
CCCn1c(NCc2cccc(OC)c2OC)nc2ccccc21 | inconclusive: 37.1%
O=C(O)CCc1ccc(-c2cccs2)n1CCC(=O)O | inconclusive: 35.9%
CCOc1ccc(C2=Cc3cc(OC)c(OC)cc3C(=C(Cl)Cl)O2)cc1 | inconclusive: 33.1%
NS(=O)(=O)c1ccc(N=Cc2ccc(Br)s2)cc1 | inconclusive: 40.8%
N#CNC(=Nc1ccccc1F)SCc1ccc(C(=O)O)cc1 | inconclusive: 45.9%
Cc1nnc(NC(=O)c2c(F)c(F)c(F)c(F)c2F)s1 | inconclusive: 50.4%
CCCc1nc(SCC(=O)N2CCCC2)c2ccccc2n1 | inactive: -0.12%
CC(=O)Nc1ccc(NC(=O)[C@@H](NC(=O)c2ccccc2F)C(C)C)cc1 | inactive: 2.31%
Cc1ccccc1C(=O)NC(=S)NCCC1=CCCCC1 | inconclusive: 42.2%
Nc1cc(S(=O)(=O)c2ccc(O)c(N)c2)ccc1O | inconclusive: 33.9%
CC1=NN(c2ccc(C(=O)O)c(N)c2)C(=O)C1 | inconclusive: 59.2%
CC(C)CCn1c(Sc2nc3ccccc3s2)nc2c1c(=O)[nH]c(=O)n2C | inconclusive: 34.4%
O=S(=O)(O)c1cccc(N=Nc2c(O)ccc3ccccc23)c1 | inconclusive: 46.9%
O=C(NCCN1CCOCC1)C1CCC(CNS(=O)(=O)c2ccccc2)CC1 (stereo unspecified) | inconclusive: 38.8%
O=C(CCCN1C(=O)/C(=C\c2ccco2)SC1=S)Nc1ccc(O)cc1C(=O)O | inconclusive: 49%
O=C1C(=O)N(CCN2CCOCC2)C(c2ccccn2)/C1=C(/O)c1ccc(Cl)cc1 (stereo unspecified) | inconclusive: 50%
Clc1ccc(SCc2cc(-c3ccccc3)on2)cc1 | inconclusive: 38%
Cc1ccccc1NC(=O)NCC1CCCO1 (stereo unspecified) | inconclusive: 33.6%
CCCn1c(NC(=O)c2cccc(S(=O)(=O)N3CCCC3)c2)nc2ccccc21 | inconclusive: 33.1%
O=c1[nH]nc(Cc2ccc(Cl)cc2)c2ccccc12 | inconclusive: 38.6%
CCCCCCCOC(=O)C1=C(C)Nc2ncnn2C1c1cccs1 (stereo unspecified) | inconclusive: 50.1%

SMILES | inhibition
Cc1ccc(S(=O)(=O)CCSc2cccc(C(=O)Nc3ccccc3C(=O)O)c2)cc1 | inconclusive: 46.6%
COc1ccc(S(=O)(=O)Nc2ccc3oc(C)c(C(C)=O)c3c2)cc1 | inconclusive: 42.8%
COc1ccccc1NC(=O)c1ccc(N2CC3CC(C2)c2cccc(=O)n2C3)c(NC(=O)c2ccncc2)c1 (stereo unspecified) | inconclusive: 46.8%
COC(=O)CSc1nn(-c2ccc(F)cc2)c(=S)s1 | inconclusive: 45.4%
C=CCNC(=O)c1onc(CSc2ccc(F)c(F)c2)c1C(=O)O | inconclusive: 44.4%
COc1cc(Cl)ccc1OCc1cc(C(=O)NC(C)Cc2cnccn2)no1 (stereo unspecified) | inconclusive: 38.1%
CCN=c1scc(C)n1/N=C/c1cc(Br)c(O)c(OC)c1 | inactive: 10.6%
COC(=O)CCCC[C@H]1SC[C@H]2NC(=O)N[C@]21O | inconclusive: 44.5%
O=c1cnn([C@@H]2O[C@H](CO)[C@@H](O)[C@H]2O)c(=O)[nH]1 | inconclusive: 58.1%
Cc1ccc(NC(=O)C(=O)C2C(=O)Nc3ccccc32)cc1 (stereo unspecified) | inconclusive: 53.5%
CC(CNC(=O)c1cncc(O)c1)NC(=O)c1cncc(O)c1 (stereo unspecified) | inconclusive: 29.9%
COc1ccc(S(=O)(=O)c2nnn(-c3ccccc3Cl)c2N)cc1 | inconclusive: 41.3%
C/C(=C\c1ccco1)C1Nc2cccc3cccc(c23)N1 | inconclusive: 17.6%
Cc1ccc(-c2ccc(/C=C3\C(=O)ON=C3c3ccccc3)o2)c([N+](=O)[O-])c1 | inconclusive: 38.8%
Cc1ccsc1/C=N/NC(=O)Cc1ccc(Cl)cc1 | inconclusive: 35.5%
Cc1ccc(NC(=O)COC(=O)c2ccc(-n3cnnn3)cc2)c(Br)c1 | inconclusive: 43.7%
O=c1oc(-c2ccccc2Cl)nc2ccsc12 | inconclusive: 49.1%
COc1cccc(NC(=O)c2ccc(-n3cccn3)nc2)c1 | inconclusive: 37%
COc1ccc(CCNC(=O)C2CCCN(c3ncccn3)C2)cc1 (stereo unspecified) | inconclusive: 45.8%
O=C(O)C1CCCN1c1ncnc2ccccc12 (stereo unspecified) | inconclusive: 58%
Cc1c(Br)c(=O)oc2c(Br)c(O)ccc12 | inactive: -6.73%
CC(=O)Nc1ccccc1S(=O)(=O)CC1CC1(Cl)Cl (stereo unspecified) | inactive: 4.64%

Nothing new here: an excerpt of the list.
SMILES | inhibition
Cc1ccsc1/C=N/NC(=O)Cc1ccc(Cl)cc1 | inconclusive: 35.5%
Cc1ccc(NC(=O)COC(=O)c2ccc(-n3cnnn3)cc2)c(Br)c1 | inconclusive: 43.7%
O=c1oc(-c2ccccc2Cl)nc2ccsc12 | inconclusive: 49.1%
COc1cccc(NC(=O)c2ccc(-n3cccn3)nc2)c1 | inconclusive: 37%
COc1ccc(CCNC(=O)C2CCCN(c3ncccn3)C2)cc1 (stereo unspecified) | inconclusive: 45.8%
O=C(O)C1CCCN1c1ncnc2ccccc12 (stereo unspecified) | inconclusive: 58%
Cc1c(Br)c(=O)oc2c(Br)c(O)ccc12 | inactive: -6.73%
